PubChem BioAssay AID1224830 – NIAID – 2016

- Assay: 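Genes whose knock-down alters the TNF-alpha reporter response to LPS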 (primary screen)
- System: human THP-1 monocytic leukaemia cells, TNF dual-luciferase reporter clone, PMA-differentiated to macrophage-like cells
- Reagents: siRNA pool against human genes, 50 nM
- Timing: LPS for 4 h, given about 3 days after siRNA transfection
- Treatment: bacterial LPS (TLR4 ligand), 10 ng/ml
- Measured: 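Ratio of firefly to renilla light, scaled to the plate median and expressed as a robust z-score per replicate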
- Scale: TNF reporter robust z-score: higher = stronger TNF reporter response to LPS
- Hit rule: 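Each well counts as active if its z-score is over 2.8 or under -1.5; controls are left without a call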
In all, the deposit lists about 18,000 reagents; this is a part drawn at random. About 2,900 of them (16%) were called active. 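Calls are made per well; low scores hint the gene aids the LPS response, high scores that it dampens it.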 Repeated entries: four replicate wells of each siRNA pool.

no.	Target gene	TNF reporter robust z-score	activity call
1	TNFRSF1B (TNF receptor superfamily member 1B)	-0.78	inactive
2	TNFRSF1B (TNF receptor superfamily member 1B)	-0.05	inactive
3	TNFRSF1B (TNF receptor superfamily member 1B)	-0.15	inactive
4	TNFRSF1B (TNF receptor superfamily member 1B)	-0.55	inactive
5	CNIH1 (cornichon family member 1)	-0.72	inactive
6	CNIH1 (cornichon family member 1)	-0.82	inactive
7	CNIH1 (cornichon family member 1)	-0.3	inactive
8	CNIH1 (cornichon family member 1)	-0.43	inactive
9	MFN2 (mitofusin 2)	-0.09	inactive
10	MFN2 (mitofusin 2)	0.16	inactive
11	MFN2 (mitofusin 2)	-0.41	inactive
12	MFN2 (mitofusin 2)	0.56	inactive
13	CLMB (calcimembrin)	-0.26	inactive
14	CLMB (calcimembrin)	0.35	inactive
15	CLMB (calcimembrin)	2.54	inactive
16	CLMB (calcimembrin)	0.03	inactive
17	BRD9 (bromodomain containing 9)	2.56	inactive
18	BRD9 (bromodomain containing 9)	-0.36	inactive
19	BRD9 (bromodomain containing 9)	-0.09	inactive
20	BRD9 (bromodomain containing 9)	0.5	inactive
21	DNAJC16 (DnaJ heat shock protein family (Hsp40) member C16)	-0.14	inactive
22	DNAJC16 (DnaJ heat shock protein family (Hsp40) member C16)	0.83	inactive
23	DNAJC16 (DnaJ heat shock protein family (Hsp40) member C16)	0.24	inactive
24	DNAJC16 (DnaJ heat shock protein family (Hsp40) member C16)	0.46	inactive
25	IRS1 (insulin receptor substrate 1)	-0.29	inactive
26	IRS1 (insulin receptor substrate 1)	-0.64	inactive
27	IRS1 (insulin receptor substrate 1)	-0.62	inactive
28	IRS1 (insulin receptor substrate 1)	-0.35	inactive
29	PRICKLE4 (prickle planar cell polarity protein 4)	0.89	inactive
30	PRICKLE4 (prickle planar cell polarity protein 4)	1.13	inactive
31	PRICKLE4 (prickle planar cell polarity protein 4)	-0.25	inactive
32	PRICKLE4 (prickle planar cell polarity protein 4)	-0.07	inactive
33	SAMSN1 (SAM domain, SH3 domain and nuclear localization signals 1)	-0.48	inactive
34	SAMSN1 (SAM domain, SH3 domain and nuclear localization signals 1)	-1.21	inactive
35	SAMSN1 (SAM domain, SH3 domain and nuclear localization signals 1)	-1.66	active
36	SAMSN1 (SAM domain, SH3 domain and nuclear localization signals 1)	-0.3	inactive
37	SQSTM1 (sequestosome 1)	0.01	inactive
38	SQSTM1 (sequestosome 1)	1.17	inactive
39	SQSTM1 (sequestosome 1)	1.23	inactive
40	SQSTM1 (sequestosome 1)	1.41	inactive
41	PLA2R1 (phospholipase A2 receptor 1)	-1.08	inactive
42	PLA2R1 (phospholipase A2 receptor 1)	-0.64	inactive
43	PLA2R1 (phospholipase A2 receptor 1)	-0.89	inactive
44	PLA2R1 (phospholipase A2 receptor 1)	-0.35	inactive
45	ISLR2 (immunoglobulin superfamily containing leucine rich repeat 2)	-0.75	inactive
46	ISLR2 (immunoglobulin superfamily containing leucine rich repeat 2)	-0.87	inactive
47	ISLR2 (immunoglobulin superfamily containing leucine rich repeat 2)	0.22	inactive
48	ISLR2 (immunoglobulin superfamily containing leucine rich repeat 2)	0.24	inactive
49	ZBTB20 (zinc finger and BTB domain containing 20)	-1.3	inactive
50	ZBTB20 (zinc finger and BTB domain containing 20)	-0.66	inactive
51	ZBTB20 (zinc finger and BTB domain containing 20)	-1.08	inactive
52	ZBTB20 (zinc finger and BTB domain containing 20)	-0.65	inactive
53	PIGW (phosphatidylinositol glycan anchor biosynthesis class W)	-0.49	inactive
54	PIGW (phosphatidylinositol glycan anchor biosynthesis class W)	0.64	inactive
55	PIGW (phosphatidylinositol glycan anchor biosynthesis class W)	1.41	inactive
56	PIGW (phosphatidylinositol glycan anchor biosynthesis class W)	-0.34	inactive
57	PERP (p53 apoptosis effector related to PMP22)	-0.85	inactive
58	PERP (p53 apoptosis effector related to PMP22)	-0.42	inactive
59	PERP (p53 apoptosis effector related to PMP22)	1.14	inactive
60	PERP (p53 apoptosis effector related to PMP22)	-0.17	inactive
61	ARSJ (arylsulfatase family member J)	-0.48	inactive
62	ARSJ (arylsulfatase family member J)	0.21	inactive
63	ARSJ (arylsulfatase family member J)	-0.34	inactive
64	ARSJ (arylsulfatase family member J)	0.6	inactive
65	NOVA1 (NOVA alternative splicing regulator 1)	1.31	inactive
66	NOVA1 (NOVA alternative splicing regulator 1)	0.73	inactive
67	NOVA1 (NOVA alternative splicing regulator 1)	0.61	inactive
68	NOVA1 (NOVA alternative splicing regulator 1)	1.22	inactive
69	ANAPC13 (anaphase promoting complex subunit 13)	0.49	inactive
70	ANAPC13 (anaphase promoting complex subunit 13)	0.44	inactive
71	ANAPC13 (anaphase promoting complex subunit 13)	0.4	inactive
72	ANAPC13 (anaphase promoting complex subunit 13)	0.18	inactive
73	XRCC2 (X-ray repair cross complementing 2)	0.25	inactive
74	XRCC2 (X-ray repair cross complementing 2)	1.82	inactive
75	XRCC2 (X-ray repair cross complementing 2)	1.91	inactive
76	XRCC2 (X-ray repair cross complementing 2)	2.74	inactive

Entries listed above marked active (1):
Target gene	TNF reporter robust z-score	activity call
SAMSN1 (SAM domain, SH3 domain and nuclear localization signals 1)	-1.66	active
